Laboratory results: patent US20160089464A1, “MALODOR REDUCTION COMPOSITIONS” (The Procter & Gamble Company, priority 2014, published 2016)

Assay: Comment Code material properties: vapor pressure, ClogP, probability of ingredient color instability, odor detection threshold, melamine formaldehyde PMC headspace response ratio and leakage, liquid dish neat product liquid-air partition coefficient
Format: physicochemical
Details: Table 1 materials; each letter of the code is one property class (vapor pressure, ClogP, color instability, odor detection threshold, PMC headspace ratio, PMC leakage, liquid dish liquid-air partition coefficient)

Structure (SMILES) | Comment Code
CCCCCCC[C@H]1CCC(=O)O1 [Material 885] | DEFHJKL
CCCCCCC[C@@H]1CCC(=O)O1 [Material 886] | DEFHJKL
